Reference: publication PMC4259352
No constants are given. Whether binding was seen depends on the method and setting. In cells and extracts the contact can be indirect. Some results given as binding are weak or reduced against the parent protein; the word gives no strength.

The chains behind the UniProt entries cited, without tags or fusion partners.
UniProt O60934: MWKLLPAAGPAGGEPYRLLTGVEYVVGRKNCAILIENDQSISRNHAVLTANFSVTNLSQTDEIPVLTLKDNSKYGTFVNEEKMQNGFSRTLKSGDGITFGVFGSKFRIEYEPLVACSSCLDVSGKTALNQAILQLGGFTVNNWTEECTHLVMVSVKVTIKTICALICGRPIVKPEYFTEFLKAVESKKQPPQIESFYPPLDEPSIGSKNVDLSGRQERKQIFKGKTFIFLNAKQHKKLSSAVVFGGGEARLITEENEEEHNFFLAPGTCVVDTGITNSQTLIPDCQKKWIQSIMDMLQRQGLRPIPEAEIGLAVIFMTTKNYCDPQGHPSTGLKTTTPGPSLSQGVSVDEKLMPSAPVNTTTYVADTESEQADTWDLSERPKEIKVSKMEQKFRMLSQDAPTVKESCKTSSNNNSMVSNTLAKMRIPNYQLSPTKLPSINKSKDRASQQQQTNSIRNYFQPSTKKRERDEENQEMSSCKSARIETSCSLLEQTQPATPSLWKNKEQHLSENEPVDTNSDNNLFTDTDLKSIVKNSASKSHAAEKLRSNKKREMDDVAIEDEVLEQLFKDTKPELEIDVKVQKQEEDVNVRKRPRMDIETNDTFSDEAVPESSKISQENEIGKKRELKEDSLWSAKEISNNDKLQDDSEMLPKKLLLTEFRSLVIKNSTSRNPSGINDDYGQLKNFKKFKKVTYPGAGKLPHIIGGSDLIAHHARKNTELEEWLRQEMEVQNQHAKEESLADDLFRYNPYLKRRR
UniProt P09874: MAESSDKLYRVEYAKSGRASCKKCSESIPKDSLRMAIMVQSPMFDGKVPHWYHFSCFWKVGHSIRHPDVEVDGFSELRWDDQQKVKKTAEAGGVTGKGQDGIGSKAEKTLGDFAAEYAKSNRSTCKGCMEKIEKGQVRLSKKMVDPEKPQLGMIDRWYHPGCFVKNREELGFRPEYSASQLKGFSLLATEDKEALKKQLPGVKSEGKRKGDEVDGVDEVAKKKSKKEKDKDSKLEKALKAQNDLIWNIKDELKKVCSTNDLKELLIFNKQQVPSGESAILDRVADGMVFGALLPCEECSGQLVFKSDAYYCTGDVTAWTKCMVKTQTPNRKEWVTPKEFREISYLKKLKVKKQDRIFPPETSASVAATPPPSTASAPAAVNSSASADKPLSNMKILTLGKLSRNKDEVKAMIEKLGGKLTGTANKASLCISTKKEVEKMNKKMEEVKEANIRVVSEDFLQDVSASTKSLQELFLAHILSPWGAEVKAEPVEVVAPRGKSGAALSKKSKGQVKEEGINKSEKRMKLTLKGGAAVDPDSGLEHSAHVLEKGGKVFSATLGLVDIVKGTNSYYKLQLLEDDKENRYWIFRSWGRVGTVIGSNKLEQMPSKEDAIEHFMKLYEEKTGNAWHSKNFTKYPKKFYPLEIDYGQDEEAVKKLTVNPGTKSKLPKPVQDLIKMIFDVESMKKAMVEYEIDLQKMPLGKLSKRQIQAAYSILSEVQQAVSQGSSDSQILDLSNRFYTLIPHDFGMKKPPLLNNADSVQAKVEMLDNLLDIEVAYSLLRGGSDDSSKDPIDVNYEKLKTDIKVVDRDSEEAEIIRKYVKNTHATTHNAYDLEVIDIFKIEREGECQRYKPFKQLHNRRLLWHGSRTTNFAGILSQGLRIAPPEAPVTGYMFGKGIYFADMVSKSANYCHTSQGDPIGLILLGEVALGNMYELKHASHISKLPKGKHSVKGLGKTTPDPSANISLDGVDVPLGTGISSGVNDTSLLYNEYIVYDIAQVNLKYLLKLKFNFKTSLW
UniProt O96017: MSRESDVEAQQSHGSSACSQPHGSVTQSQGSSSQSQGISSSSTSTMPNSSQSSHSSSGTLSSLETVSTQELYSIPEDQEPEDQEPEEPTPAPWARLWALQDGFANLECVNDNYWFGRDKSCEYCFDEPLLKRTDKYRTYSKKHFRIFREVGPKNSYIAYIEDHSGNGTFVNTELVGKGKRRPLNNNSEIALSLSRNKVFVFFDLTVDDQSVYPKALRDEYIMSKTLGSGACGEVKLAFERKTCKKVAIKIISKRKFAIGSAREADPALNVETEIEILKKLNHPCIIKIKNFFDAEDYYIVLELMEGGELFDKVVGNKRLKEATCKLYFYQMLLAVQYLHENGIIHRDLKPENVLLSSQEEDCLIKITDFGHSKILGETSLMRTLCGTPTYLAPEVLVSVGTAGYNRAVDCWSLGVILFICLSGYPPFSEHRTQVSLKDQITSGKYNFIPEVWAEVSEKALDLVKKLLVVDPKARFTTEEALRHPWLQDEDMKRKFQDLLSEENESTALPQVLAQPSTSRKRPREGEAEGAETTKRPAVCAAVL
UniProt P23497: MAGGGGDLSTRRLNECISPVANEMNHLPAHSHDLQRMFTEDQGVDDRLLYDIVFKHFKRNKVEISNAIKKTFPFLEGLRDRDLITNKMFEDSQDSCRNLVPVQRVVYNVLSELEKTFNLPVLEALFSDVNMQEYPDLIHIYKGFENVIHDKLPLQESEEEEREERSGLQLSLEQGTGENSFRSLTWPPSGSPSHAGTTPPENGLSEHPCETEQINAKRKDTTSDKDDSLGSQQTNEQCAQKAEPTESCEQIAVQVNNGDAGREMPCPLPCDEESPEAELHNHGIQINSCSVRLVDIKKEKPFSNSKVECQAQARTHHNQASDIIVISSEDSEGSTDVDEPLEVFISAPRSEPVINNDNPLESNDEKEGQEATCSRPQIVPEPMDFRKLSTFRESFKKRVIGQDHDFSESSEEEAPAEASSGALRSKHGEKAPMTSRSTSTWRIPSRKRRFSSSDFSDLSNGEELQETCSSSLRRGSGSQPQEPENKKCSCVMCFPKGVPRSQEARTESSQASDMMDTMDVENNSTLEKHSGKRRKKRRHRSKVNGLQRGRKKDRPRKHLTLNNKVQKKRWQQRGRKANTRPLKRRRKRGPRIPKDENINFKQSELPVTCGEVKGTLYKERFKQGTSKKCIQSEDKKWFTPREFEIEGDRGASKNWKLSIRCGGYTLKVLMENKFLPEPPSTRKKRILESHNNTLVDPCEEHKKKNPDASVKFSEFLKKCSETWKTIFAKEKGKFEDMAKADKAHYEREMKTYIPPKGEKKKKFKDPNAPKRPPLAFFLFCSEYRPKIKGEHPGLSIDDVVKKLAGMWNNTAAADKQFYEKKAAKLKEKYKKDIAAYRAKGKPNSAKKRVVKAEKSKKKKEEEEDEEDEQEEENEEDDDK

What was measured:
[1] = target: T1, MRE11 (human (endogenous in HEK293)) (UniProt P49959); experiment: condition: only cells not irradiated (basal conditions); co-IP; as a3 but cells not irradiated (basal conditions): immunoprecipitated with anti-MRE11, blotted with anti-Strep-tag and anti-PARP1
T1 sequence: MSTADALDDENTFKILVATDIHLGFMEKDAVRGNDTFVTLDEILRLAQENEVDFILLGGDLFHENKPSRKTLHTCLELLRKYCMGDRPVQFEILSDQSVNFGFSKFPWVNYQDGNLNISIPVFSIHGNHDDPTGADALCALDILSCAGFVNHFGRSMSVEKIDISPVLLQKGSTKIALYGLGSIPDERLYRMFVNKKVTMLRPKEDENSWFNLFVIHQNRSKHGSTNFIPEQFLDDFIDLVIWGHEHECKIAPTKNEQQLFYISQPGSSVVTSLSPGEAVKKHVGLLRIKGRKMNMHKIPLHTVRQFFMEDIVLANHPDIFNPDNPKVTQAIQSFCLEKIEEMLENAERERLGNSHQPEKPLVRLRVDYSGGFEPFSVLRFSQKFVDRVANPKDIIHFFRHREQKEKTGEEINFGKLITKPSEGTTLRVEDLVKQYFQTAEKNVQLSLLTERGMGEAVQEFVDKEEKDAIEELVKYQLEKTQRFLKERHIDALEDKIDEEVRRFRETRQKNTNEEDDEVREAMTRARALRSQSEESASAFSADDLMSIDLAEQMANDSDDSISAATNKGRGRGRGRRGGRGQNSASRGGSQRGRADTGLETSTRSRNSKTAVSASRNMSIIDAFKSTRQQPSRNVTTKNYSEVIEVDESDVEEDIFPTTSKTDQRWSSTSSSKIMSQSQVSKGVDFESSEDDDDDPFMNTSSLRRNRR

[2] = target: T1, MRE11 (human (endogenous in HEK293)); experiment: co-IP; protein eluates of HEK293 cells transfected with Strep-tagged full length NBN or p26, harvested 0.5 h after 2 Gy of X-rays (NBN also in basal conditions), immunoprecipitated with anti-MRE11, blotted with anti-Strep-tag and anti-PARP1
[3] = target: Strep-tagged full-length nibrin (NBN) (human) (UniProt O60934); experiment: pull-down; Strep-Tactin chromatography eluates (30 µg) of HEK293 cells expressing Strep-tagged NBN, p26 or p70, untreated or lysed 30 min after 2 Gy of X-rays, analysed by Western blot

Substance	binding [1]	binding [2]	binding [3]
Poly(ADP-ribose) polymerase (from UniProt P09874 1-1014)	no binding	binds	
pThr68-CHEK2 (from UniProt O96017 1-543)			binds
Hsp89-alpha-delta-N (from UniProt P07900 1-732)			binds

Next, values leading:

binding [1]	binding [2]	binding [3]	Substance
		binds	nuclear dots-associated protein SP100 (from UniProt P23497 1-879)
		binds	CHEK2 (from UniProt O96017 1-543)
